# Assay results taken from the supplement of paper PMC6411743.
# Amino acid sequences for entries named in this document (tags omitted). A change or cut given only in a name is not applied to a line headed by its entry.
# UniProt Q9NVP1: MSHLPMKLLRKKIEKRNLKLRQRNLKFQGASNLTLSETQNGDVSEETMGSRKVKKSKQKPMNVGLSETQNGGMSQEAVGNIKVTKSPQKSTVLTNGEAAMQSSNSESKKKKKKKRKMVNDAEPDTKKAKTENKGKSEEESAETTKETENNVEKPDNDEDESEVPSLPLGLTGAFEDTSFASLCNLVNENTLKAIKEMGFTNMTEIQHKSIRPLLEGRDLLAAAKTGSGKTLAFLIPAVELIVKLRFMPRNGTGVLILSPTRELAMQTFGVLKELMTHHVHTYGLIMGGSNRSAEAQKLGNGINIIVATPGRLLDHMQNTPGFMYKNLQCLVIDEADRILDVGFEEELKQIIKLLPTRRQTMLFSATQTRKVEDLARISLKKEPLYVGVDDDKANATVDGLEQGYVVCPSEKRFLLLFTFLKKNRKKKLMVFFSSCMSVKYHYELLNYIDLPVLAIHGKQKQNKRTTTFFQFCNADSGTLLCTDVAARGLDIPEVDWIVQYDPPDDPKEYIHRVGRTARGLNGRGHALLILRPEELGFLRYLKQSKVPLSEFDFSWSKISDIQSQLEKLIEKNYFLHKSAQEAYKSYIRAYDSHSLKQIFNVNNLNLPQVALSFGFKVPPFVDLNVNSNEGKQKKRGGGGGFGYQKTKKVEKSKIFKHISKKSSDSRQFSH
# UniProt Q9P035: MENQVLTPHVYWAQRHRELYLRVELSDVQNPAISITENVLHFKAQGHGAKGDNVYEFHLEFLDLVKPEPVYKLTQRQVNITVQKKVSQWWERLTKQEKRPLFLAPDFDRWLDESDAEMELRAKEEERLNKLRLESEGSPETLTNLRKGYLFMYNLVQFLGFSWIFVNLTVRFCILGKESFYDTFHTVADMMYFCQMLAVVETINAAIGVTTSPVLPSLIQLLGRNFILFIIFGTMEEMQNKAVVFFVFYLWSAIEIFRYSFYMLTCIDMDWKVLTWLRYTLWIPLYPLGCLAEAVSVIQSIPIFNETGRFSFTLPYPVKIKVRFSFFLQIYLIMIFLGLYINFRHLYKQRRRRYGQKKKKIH
# UniProt Q9NVT9: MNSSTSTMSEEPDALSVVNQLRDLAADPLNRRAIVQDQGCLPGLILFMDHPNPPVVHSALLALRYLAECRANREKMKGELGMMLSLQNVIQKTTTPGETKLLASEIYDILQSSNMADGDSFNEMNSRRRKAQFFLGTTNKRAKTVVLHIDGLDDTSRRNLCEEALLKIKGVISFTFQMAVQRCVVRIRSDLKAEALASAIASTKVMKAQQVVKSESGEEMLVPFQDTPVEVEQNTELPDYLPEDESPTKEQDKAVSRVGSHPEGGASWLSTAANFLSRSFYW
# UniProt Q9NZJ4: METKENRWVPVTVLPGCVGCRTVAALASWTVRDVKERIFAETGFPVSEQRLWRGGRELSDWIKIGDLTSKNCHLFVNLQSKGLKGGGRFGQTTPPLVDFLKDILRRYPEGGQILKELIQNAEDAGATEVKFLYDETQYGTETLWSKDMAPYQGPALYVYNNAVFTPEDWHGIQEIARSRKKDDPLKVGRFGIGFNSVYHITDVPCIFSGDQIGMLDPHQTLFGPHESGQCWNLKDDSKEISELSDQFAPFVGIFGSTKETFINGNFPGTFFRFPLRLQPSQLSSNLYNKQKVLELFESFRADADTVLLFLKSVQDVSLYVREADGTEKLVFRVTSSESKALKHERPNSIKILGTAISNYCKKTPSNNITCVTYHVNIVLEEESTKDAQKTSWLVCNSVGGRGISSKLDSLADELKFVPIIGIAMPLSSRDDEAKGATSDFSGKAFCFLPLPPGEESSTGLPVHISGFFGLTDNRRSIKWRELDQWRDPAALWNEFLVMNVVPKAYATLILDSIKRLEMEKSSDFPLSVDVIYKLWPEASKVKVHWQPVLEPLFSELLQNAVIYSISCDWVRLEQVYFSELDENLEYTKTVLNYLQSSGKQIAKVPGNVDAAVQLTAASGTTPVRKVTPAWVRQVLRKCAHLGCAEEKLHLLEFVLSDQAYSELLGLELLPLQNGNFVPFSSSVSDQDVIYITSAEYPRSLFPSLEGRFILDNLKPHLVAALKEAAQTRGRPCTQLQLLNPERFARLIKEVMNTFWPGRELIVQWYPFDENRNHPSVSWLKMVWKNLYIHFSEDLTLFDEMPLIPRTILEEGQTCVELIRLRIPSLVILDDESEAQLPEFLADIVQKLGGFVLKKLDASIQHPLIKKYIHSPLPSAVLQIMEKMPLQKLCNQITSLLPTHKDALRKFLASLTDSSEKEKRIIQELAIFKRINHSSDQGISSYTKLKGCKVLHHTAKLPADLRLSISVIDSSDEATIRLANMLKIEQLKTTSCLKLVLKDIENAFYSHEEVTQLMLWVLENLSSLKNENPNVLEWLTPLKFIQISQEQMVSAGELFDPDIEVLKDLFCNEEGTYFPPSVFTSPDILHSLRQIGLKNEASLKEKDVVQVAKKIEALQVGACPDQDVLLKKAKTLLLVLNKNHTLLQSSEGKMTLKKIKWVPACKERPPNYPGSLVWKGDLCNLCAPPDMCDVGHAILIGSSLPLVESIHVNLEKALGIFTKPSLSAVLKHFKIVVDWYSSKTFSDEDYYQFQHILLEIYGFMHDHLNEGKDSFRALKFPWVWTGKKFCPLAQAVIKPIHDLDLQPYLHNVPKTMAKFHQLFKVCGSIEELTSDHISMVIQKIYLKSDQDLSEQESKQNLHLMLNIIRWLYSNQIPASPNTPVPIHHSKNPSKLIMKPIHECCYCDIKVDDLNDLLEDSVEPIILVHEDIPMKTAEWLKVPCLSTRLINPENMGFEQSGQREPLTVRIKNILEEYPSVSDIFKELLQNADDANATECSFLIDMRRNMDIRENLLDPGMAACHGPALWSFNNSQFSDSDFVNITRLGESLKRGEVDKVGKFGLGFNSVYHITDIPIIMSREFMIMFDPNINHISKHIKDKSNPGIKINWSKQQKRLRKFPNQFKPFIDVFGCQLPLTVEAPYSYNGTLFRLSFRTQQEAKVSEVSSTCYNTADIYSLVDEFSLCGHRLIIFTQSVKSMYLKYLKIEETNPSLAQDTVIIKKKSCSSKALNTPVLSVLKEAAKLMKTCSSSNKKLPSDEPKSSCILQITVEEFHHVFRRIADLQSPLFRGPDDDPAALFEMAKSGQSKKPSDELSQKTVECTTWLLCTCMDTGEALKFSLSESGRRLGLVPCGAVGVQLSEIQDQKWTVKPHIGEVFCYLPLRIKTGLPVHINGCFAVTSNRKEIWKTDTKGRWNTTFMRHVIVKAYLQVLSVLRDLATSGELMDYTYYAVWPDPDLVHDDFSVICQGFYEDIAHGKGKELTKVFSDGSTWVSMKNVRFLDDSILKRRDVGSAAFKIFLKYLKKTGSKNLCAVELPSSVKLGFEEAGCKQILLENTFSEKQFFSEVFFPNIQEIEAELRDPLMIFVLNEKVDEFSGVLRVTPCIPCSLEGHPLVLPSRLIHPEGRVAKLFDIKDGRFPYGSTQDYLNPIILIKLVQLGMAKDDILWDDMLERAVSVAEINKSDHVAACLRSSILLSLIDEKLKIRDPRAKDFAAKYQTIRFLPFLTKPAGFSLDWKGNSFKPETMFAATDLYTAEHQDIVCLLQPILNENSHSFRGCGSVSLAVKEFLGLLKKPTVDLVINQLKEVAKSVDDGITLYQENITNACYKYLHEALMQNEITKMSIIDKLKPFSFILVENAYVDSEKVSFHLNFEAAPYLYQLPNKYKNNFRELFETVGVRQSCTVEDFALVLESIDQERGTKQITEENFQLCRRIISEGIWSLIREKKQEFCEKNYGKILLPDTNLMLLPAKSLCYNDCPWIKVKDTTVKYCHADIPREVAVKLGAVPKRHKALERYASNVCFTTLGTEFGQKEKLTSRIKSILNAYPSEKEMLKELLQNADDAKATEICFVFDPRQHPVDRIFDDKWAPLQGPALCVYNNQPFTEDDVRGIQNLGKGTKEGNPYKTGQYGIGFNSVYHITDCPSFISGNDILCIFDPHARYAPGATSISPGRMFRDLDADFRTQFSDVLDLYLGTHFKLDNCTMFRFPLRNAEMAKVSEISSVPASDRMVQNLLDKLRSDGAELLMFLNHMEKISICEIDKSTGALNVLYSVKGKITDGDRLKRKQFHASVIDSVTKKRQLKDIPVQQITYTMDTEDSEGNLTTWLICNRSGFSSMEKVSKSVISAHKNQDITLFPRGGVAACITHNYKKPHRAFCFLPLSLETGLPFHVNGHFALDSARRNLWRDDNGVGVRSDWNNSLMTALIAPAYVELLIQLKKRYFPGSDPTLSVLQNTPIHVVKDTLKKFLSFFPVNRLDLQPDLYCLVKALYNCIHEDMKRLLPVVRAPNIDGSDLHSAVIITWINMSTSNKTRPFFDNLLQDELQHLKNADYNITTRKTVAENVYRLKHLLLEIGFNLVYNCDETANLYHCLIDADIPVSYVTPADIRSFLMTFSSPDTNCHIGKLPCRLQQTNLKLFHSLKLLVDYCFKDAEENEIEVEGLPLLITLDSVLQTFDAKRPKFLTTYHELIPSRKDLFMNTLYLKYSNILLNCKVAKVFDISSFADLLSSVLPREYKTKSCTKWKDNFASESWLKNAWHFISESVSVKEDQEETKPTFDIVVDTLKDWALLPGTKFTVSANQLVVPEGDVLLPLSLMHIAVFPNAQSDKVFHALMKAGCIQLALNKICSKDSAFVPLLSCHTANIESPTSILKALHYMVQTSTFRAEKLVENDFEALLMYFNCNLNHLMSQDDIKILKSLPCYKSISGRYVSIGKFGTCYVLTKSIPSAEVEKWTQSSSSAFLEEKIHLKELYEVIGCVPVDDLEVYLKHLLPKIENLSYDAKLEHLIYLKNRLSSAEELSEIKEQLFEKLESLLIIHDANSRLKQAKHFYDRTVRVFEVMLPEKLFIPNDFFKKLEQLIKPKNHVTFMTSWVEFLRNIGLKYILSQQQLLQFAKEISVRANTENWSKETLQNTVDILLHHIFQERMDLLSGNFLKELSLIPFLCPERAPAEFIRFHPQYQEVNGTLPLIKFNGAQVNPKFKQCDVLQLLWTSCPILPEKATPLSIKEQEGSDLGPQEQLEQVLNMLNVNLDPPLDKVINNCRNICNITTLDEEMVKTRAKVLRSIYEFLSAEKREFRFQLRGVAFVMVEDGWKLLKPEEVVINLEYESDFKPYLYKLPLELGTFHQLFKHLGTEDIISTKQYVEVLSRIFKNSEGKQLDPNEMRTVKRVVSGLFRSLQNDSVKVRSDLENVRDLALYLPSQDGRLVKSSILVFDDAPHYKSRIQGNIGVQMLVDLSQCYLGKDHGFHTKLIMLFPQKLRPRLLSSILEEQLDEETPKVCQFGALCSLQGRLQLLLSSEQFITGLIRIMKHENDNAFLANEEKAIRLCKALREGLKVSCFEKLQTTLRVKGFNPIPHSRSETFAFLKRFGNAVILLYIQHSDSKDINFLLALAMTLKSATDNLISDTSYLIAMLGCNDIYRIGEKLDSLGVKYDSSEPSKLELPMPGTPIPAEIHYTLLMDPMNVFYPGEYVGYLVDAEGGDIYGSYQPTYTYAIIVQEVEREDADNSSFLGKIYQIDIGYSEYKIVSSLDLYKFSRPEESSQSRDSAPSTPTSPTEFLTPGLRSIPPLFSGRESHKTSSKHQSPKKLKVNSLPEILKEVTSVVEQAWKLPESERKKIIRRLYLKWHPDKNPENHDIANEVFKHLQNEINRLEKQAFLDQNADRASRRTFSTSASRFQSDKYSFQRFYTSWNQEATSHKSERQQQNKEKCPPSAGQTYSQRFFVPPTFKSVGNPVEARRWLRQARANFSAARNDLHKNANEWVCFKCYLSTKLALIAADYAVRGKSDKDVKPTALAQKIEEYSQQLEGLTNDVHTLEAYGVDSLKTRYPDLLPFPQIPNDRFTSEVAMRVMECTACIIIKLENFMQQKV
# UniProt Q9NRG9: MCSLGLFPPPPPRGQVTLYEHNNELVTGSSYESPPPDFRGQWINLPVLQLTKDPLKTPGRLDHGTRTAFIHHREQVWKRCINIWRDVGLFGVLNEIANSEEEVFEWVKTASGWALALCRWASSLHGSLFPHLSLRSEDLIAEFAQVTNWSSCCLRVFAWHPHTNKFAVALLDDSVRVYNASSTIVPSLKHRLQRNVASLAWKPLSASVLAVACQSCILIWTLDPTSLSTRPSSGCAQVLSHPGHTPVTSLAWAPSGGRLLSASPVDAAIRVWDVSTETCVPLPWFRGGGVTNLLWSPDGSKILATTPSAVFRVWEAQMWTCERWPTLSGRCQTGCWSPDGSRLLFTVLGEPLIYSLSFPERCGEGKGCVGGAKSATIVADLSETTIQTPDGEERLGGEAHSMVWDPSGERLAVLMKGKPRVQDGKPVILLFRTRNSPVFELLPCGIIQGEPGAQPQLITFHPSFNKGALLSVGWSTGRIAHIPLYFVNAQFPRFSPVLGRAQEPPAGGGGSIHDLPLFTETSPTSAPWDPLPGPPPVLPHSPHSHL
# ± gives the standard deviation of the averaged measurements. The entries are a selection whose mix differs from that of the whole data set. Most values lie at the level of the controls, where differences are scatter.
# Compound: Nc1ncnc2c1ncn2[C@@H]1O[C@H](COP(=O)(O)OP(=O)(O)OP(=O)(O)O)[C@@H](O)[C@H]1O [adenosine triphosphate]
# Assay: NP40-soluble protein abundance relative to vehicle (solubility fold change) (ratio); higher = more soluble protein in presence of ATP
# Conditions: concentration: 0.5mM
# In short: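 Jurkat crude lysate (Dounce-homogenised) was treated with eight concentrations from 0.1 to 10 mM for 10 min at room temperature, then 3 min at 37 °C. It was solubilised with 0.8% NP40 and benzonase (60 min, 4 °C) and ultracentrifuged, and the supernatant was TMT-labelled for LC-MS/MS. Intensities were vsn-normalised, and the value is the fold change against the NP40-processed vehicle per replicate, from three independent experiments.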
row,Target,NP40-soluble protein abundance
1,UniProt Q9NZC7 and related entries,1.04 ± 0.026
2,UniProt Q9NX04 and related entries,1.16 ± 0.037
3,IARS2 (UniProt Q9NSE4),1.07 ± 0.087
4,DDX18 (UniProt Q9NVP1),1.2 ± 0.047
5,UniProt Q9NUQ9 and related entries,0.988 ± 0.058
6,OSGEP (UniProt Q9NPF4),0.989 ± 0.037
7,OXSM (UniProt Q9NWU1),1.1 ± 0.14
8,RPRD1B (UniProt Q9NQG5),0.851 ± 0.13
9,UniProt Q9NUL5,0.968 ± 0.038
10,UniProt Q9NYK6 and related entries,1.01 ± 0.031
11,UniProt Q9NVI7-2,1.22 ± 0.13
12,UniProt Q9P0I2,1.08 ± 0.057
13,UniProt Q9P035 and related entries,1.08 ± 0.029
14,MRPL16 (UniProt Q9NX20),1.11 ± 0.14
15,ARMC1 (UniProt Q9NVT9),0.928 ± 0.073
16,UniProt Q9NYP7 and related entries,1.04 ± 0.083
17,ARGLU1 (UniProt Q9NWB6),1.45 ± 0.14
18,DDX21 (UniProt Q9NR30),1.18 ± 0.063
19,LUC7L (UniProt Q9NQ29),2.76 ± 0.18
20,STARD7 (UniProt Q9NQZ5),0.932 ± 0.026
21,BIRC6 (UniProt Q9NR09),1.02 ± 0.06
22,CMTM6 (UniProt Q9NX76),0.927 ± 0.11
23,TDP1 (UniProt Q9NUW8),1.05 ± 0.087
24,UniProt Q9NW64,1.05 ± 0.072
25,SACS (UniProt Q9NZJ4),1.04 ± 0.089
26,RBM28 (UniProt Q9NW13),1.11 ± 0.02
27,UniProt Q9NXR5 and related entries,0.953 ± 0.022
28,UniProt Q9NVR5,1.02 ± 0.022
29,UniProt Q9NRG9 and related entries,1.02 ± 0.079

# Random excerpt: 2 entries already listed.
row,Target,NP40-soluble protein abundance
2,UniProt Q9NX04 and related entries,1.16 ± 0.037
22,CMTM6 (UniProt Q9NX76),0.927 ± 0.11
